{"source": "patent US10914726B2", "about": "“Method for evaluating protrusion-forming ability of cell spheroids” (priority 2017, dated 2021)", "key": {"MDA-MB231 cells [1]": {"system": "MDA-MB231 cells", "test": "Live/dead determination of gel-embedded cell spheroids treated with anticancer agents", "format": "cell-based, human", "conditions": "MDA-MB231 spheroid, 48 hours; Batimastat 4 μM, Staurosporine 1 μM", "method": "The protrusion-forming ability of the cell spheroids of the cancer cells treated with various anticancer agents was examined. As the cancer cells, MDA-MB231 cells of a cultured cell strain established from a human breast cancer cells were used. MDA-MB 231 cells were cultured under a condition with a temperature of 37° C. and a CO2 concentration of 5 vol % in a culture medium of DMEM containing 10% FBS. […]\n100 μL of culture mediums containing L-Sulforaphane (final concentration: 10 μM), Batimastat (final concentration: 4 μM), Mitomycin C (final concentration: 10 μM), Paclitaxel (final concentration: 4 μM), or Staurosporine (final concentration: 1 μM) was added on the gel in which the cell spheroids were embedded, and then 0.1 μL ( 1/1000 of the culture medium amount) of “Nuclear ID green/red cell viability reagent” (manufactured by Enzo Life Science, Inc.) was further added thereto, followed by culturing them for 48 hours to infiltrate. By adding the live/dead determination reagent, the living cells were stained with red fluorescence and the dead cells were stained with green fluorescence. […]\nFor the binarized images obtained from the fluorescently labeled samples treated with the live/dead determination reagent, the number of cell nuclei of red fluorescence and green fluorescent were measured."}, "MDA-MB231 cells [2]": {"system": "MDA-MB231 cells", "test": "Evaluation of protrusion-forming ability of cell spheroids from stereoscopic image (central sphere volume ratio)", "format": "cell-based, human", "conditions": "48 hours, L-Sulforaphane 10 μM, Batimastat 4 μM, Mitomycin C 10 μM, Paclitaxel 4 μM, Staurosporine 1 μM", "method": "The protrusion-forming ability of the cell spheroids of the cancer cells treated with various anticancer agents was examined. As the cancer cells, MDA-MB231 cells of a cultured cell strain established from a human breast cancer cells were used. MDA-MB 231 cells were cultured under a condition with a temperature of 37° C. and a CO2 concentration of 5 vol % in a culture medium of DMEM containing 10% FBS.\nTwo thousand MDA-MB 231 cells and 5 μL of 10×Spheroid Formation ECM (manufactured by Trevigen, Inc.) were mixed in a culture medium to prepare a cancer cell solution of which the final amount was adjusted to 50 μL using DMEM (phenol red free), and then 50 μL of the cancer cell solution was injected into one well of the U bottom plate for forming a cell spheroid “Prime Surface (registered trade mark) U plate” (manufactured by Sumitomo Bakelite Co., LTD.), followed by culturing the cells for 72 hours to form cell spheroids.\nThe culture medium was removed from the U bottom plate as much as possible by suction while paying attention not to suck the spheroids, followed by carefully adding 100 μL of Matrigel (manufactured by Corning Incorporated) to the well. The U bottom plate was allowed to stand in an incubator at 37° C. for 1 hour, and the gel was cured to construct a cell spheroid embedded in a gel. […]"}}, "note": "At least one structure is not confirmed: it was looked up by name or label, or the drawing left a doubt.", "data": [{"smiles": "CNC(=O)[C@H](Cc1ccccc1)NC(=O)[C@H](CC(C)C)[C@H](CSc1cccs1)C(=O)NO", "note": "[Batimastat]", "values": [{"measurement": "induction of cell death", "setting": "MDA-MB231 cells [1]", "value": "cell death was induced"}, {"measurement": "central sphere volume ratio ([volume of non-protrusion part]/[total volume of cell spheroid]) from stereoscopic image", "setting": "MDA-MB231 cells [2]; FIG. 3, actin staining", "value": "higher central sphere volume ratio as compared with the remaining three anticancer agent-treated samples"}, {"measurement": "protrusion formation / protrusion-forming ability", "setting": "MDA-MB231 cells [2]; stereoscopic image", "value": "suppressed more strongly"}]}]}
